Data as given in PubChem BioAssay AID504786 (Drosophila RNAi Screening Center, 2011)

Assay: 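Knock-downs reducing HIF reporter induction by the iron chelator DFO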 (primary screen)
Cell system: Drosophila S2 cells with a stable HIF luciferase reporter
Reagents: long dsRNA against Drosophila genes, about 0.2 µg dsRNA per well of a 384-well plate
Timing: three days of knock-down, then 20 h of DFO before reading
Treatment: desferrioxamine (DFO) at 100 µM, an iron chelator that mimics hypoxia, for 20 h
Measurement: 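Firefly luciferase driven by the mouse ldh-a hypoxia-response element, measured after 20 h of 100 µM DFO; z-scores per plate, higher means more signal lost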
Direction: z-score: higher = stronger loss of HIF reporter signal
The deposit covers about 21,000 reagents; below is a random part of those that have a named target and a result. 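Primary screen; positive scores mean lost reporter signal, so the sign may be inverted from the usual convention.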 A plus sign joins genes that one reagent is predicted to hit.

predicted target	amplicon	z-score, replicate 1	z-score, replicate 2	z-score, replicate 3	z-score, replicate 4
v	DRSC20383	-0.3	-0.6		
gl	DRSC16957	-1.1	0.3		
CG2202	DRSC19841	-0.2	-0.1	0.8	-0.3
Act88F	DRSC14105	0.7	1.6		
CG31380	DRSC15688	-0.3	-0.4		
CG3939	DRSC18498	-0.2	-0.2		
BTBD9	DRSC18148	-0.3	-0.6		
Gclm	DRSC15677	-0.3	-0.4		
CG3829	DRSC04423	-0.2	-0.1		
CG12439	DRSC02168	-0.3	-0.1		
Atet	DRSC00263	-0.4	-0.4		
Pk34A	DRSC03398	-0.3	-0.4		
Ca-beta	DRSC02406	0	-0.1		
Ca-beta	DRSC02407	-0.4	-1		
Ca-beta	DRSC03285	-0.3	-0.6	-0.5	-0.3
CG15014	DRSC08468	-0.2	-0.2		
comr	DRSC04138	-0.2	-0.5		
Dyro	DRSC10598	-0.1	-0.3		
CG18004	DRSC06705	-0.4	-0.1		
Unc50	DRSC16561	-0.5	0		
ppk24	DRSC15093	0	0.5		
nAChRalpha3	DRSC18800	-0.4	-0.5		
pall	DRSC10364	0.3	0.1		
CG42493	DRSC05309	0.4	0.2		
SCCRO3	DRSC06359	-0.3	-0.2		
Sys1	DRSC14372	-0.3	-0.6		
CG13171	DRSC06299	-0.3	-0.4		
en	DRSC07609	-0.1	-0.3		
CG42712 (retired record)	DRSC01038	-0.2	0		
Coq2	DRSC16516	-0.3	-0.8		
trio	DRSC07928	-0.4	0.5		
trio	DRSC08527	-0.3	-0.6		
trio	DRSC08740	-0.4	-0.4		
CG6592	DRSC10669	-0.3	-0.5		
CG17470	DRSC02621	-0.3	-0.2		
VhaAC45	DRSC07058	-0.3	0.5		
CG33111	DRSC14208	-0.3	-0.4		
CG33111	DRSC14444	-0.3	-0.6		
Nepl9	DRSC02255	-0.1	-0.3		
fw	DRSC20334	-0.3	0		

16 entries from above, set out differently:
{"predicted target":"pall","amplicon":"DRSC10364","z-score, replicate 1":0.3,"z-score, replicate 2":0.1}
{"predicted target":"CG42493","amplicon":"DRSC05309","z-score, replicate 1":0.4,"z-score, replicate 2":0.2}
{"predicted target":"SCCRO3","amplicon":"DRSC06359","z-score, replicate 1":-0.3,"z-score, replicate 2":-0.2}
{"predicted target":"Sys1","amplicon":"DRSC14372","z-score, replicate 1":-0.3,"z-score, replicate 2":-0.6}
{"predicted target":"CG13171","amplicon":"DRSC06299","z-score, replicate 1":-0.3,"z-score, replicate 2":-0.4}
{"predicted target":"en","amplicon":"DRSC07609","z-score, replicate 1":-0.1,"z-score, replicate 2":-0.3}
{"predicted target":"CG42712 (retired record)","amplicon":"DRSC01038","z-score, replicate 1":-0.2,"z-score, replicate 2":0}
{"predicted target":"Coq2","amplicon":"DRSC16516","z-score, replicate 1":-0.3,"z-score, replicate 2":-0.8}
{"predicted target":"trio","amplicon":"DRSC07928","z-score, replicate 1":-0.4,"z-score, replicate 2":0.5}
{"predicted target":"trio","amplicon":"DRSC08527","z-score, replicate 1":-0.3,"z-score, replicate 2":-0.6}
{"predicted target":"trio","amplicon":"DRSC08740","z-score, replicate 1":-0.4,"z-score, replicate 2":-0.4}
{"predicted target":"CG6592","amplicon":"DRSC10669","z-score, replicate 1":-0.3,"z-score, replicate 2":-0.5}
{"predicted target":"CG17470","amplicon":"DRSC02621","z-score, replicate 1":-0.3,"z-score, replicate 2":-0.2}
{"predicted target":"VhaAC45","amplicon":"DRSC07058","z-score, replicate 1":-0.3,"z-score, replicate 2":0.5}
{"predicted target":"CG33111","amplicon":"DRSC14208","z-score, replicate 1":-0.3,"z-score, replicate 2":-0.4}
{"predicted target":"CG33111","amplicon":"DRSC14444","z-score, replicate 1":-0.3,"z-score, replicate 2":-0.6}

Further records:
predicted target	amplicon	z-score, replicate 1	z-score, replicate 2	z-score, replicate 3	z-score, replicate 4
TotF	DRSC02305	-0.1	0		
Rfk	DRSC15454	-0.2	0.3		
CG42299 + CG42300	DRSC19680	-0.3	-0.3		
CG42299 + CG42300	DRSC19815	-0.3	0.3		
JTBR	DRSC08667	-0.3	-0.5		
Trax	DRSC15709	0.2	0.1		
otp	DRSC04050	-0.5	-0.9		
otp	DRSC04707	0.2	0.2		
CG12402	DRSC14508	-0.3	-0.6		
Cpr47Ef	DRSC06336	-0.1	-0.2		
dnk	DRSC16933	-0.1	0.9		
CG33095	DRSC14441	-0.1	-0.6		
CG30289	DRSC03870	0.1	-0.3		
CG8547	DRSC07211	-0.4	-0.6		
cDIP	DRSC14267	-0.1	0		
puc	DRSC17034	0.6	0.5		
ND-30	DRSC08243	0.3	0.1		
m-cup	DRSC14430	-0.1	-0.5		
zfh1	DRSC14014	-0.5	-0.7		
zfh1	DRSC17098	2.3	1.4		
CG15278	DRSC02481	6.5	-0.6		
FoxK	DRSC09859	-0.4	-0.1		
FAM21	DRSC06623	-0.2	-0.4		
salr	DRSC03607	-0.3	-0.1		
nac	DRSC16520	-0.4	-0.1		
CG17855	DRSC02638	1.7	1.4		
AkhR	DRSC03329	-0.3	-0.4		
TwdlX	DRSC19151	-0.4	-0.4		
Vha36-2	DRSC06294	-0.5	-0.3		
Send1	DRSC00482	-0.3	-0.7		
Ephrin	DRSC17165	-0.3	-0.6		
AstA-R2	DRSC14171	-0.3	-0.4		
ush	DRSC00843	-0.4	0.5		
Usp5	DRSC08244	-0.3	-0.4		
CG31104	DRSC14658	-0.4	0.3		
CG5757	DRSC06951	-0.1	-0.1		
CG7829	DRSC16322	-0.2	-0.7		
CenB1A	DRSC16923	-0.4	-0.8		
Ufd1	DRSC10607	-0.1	0.4		
Or47a	DRSC07491	-0.1	-0.8		
Rbf2	DRSC16816	-0.2	-0.5		
Cyp304a1	DRSC16623	-0.1	0		
CD98hc	DRSC15453	-0.1	-0.9		
Pfdn1	DRSC02325	-0.4	-0.2		
MED8	DRSC06426	-0.1	0.1		
stum	DRSC04268	-0.3	-0.3		
stum	DRSC04270	-0.2	-0.5		
CG15185	DRSC12565	-0.3	-0.8		
CG32248	DRSC08102	0.3	0		
CG17272	DRSC15211	0	0.5		
CG16799	DRSC06626	-0.4	-0.1		
CG10395	DRSC04840	-0.2	-0.3		
SerT	DRSC04655	-0.3	-0.7		
rumpel	DRSC18436	-0.2	-0.4		
Pvf3	DRSC02284	-0.2	0.2		
Pvf3	DRSC02285	-0.1	-0.2		
Pvf3	DRSC02286	-0.2	0.1		
Pvf3	DRSC02751	-0.2	-0.3		
Nplp3	DRSC09944	-0.1	-0.5		
BBS1	DRSC10196	1	-0.2		
CG30148	DRSC06391	-0.2	-0.4		
nur	DRSC01342	0.5	0.4		
CG8031	DRSC16364	-0.2	-0.2		
CG17118	DRSC02579	0	0		
sand	DRSC07245	-0.3	-0.3		
Hsp70Bb + Hsp70Ba + Hsp70Bc + 1 more	DRSC21247	2.3	1.5		
Hsp70Bb + Hsp70Ba + Hsp70Bc + 1 more	DRSC21248	2.7	1.7		
